Some results were stated once for a whole list of compounds, not compound by compound.
Test system: THP-1 cells
Assay: cytotoxicity in THP-1 cells (Alamar Blue)
Format: cell-based, human
Conditions: at the concentration up to 50 μM, 24 hours, Alamar Blue 3 hours

Row | Structure (SMILES) | cytotoxicity
1 | Nc1ccccc1SSc1ccccc1Nc1ncccn1 [Compound 1] | no cytotoxicity was found
2 | c1cnc(Nc2ccccc2SSc2ccccc2Nc2ncccn2)nc1 [Compound 2] | no cytotoxicity was found
